Assay results as given in US20070270484A1, “3'-N-Substituted-3-O-Substituted Erythronolide a Derivatives” (priority 2003, published 2007).

Experiments:
Assay type in all cases: cell-based
[1] = system: S. pneum 1251 (mef); test: MIC, agar incorporation method (NCCLS agar dilution method); settings: Streptococcus pneumoniae, read-out: Minimum Inhibitory Concentrations, S. pneum 1251 (mef)
Procedure: (§1) Drug dilutions and the agar plates are prepared by NCCLS method. Inoculum is prepared by direct colony suspensions in normal saline and adjusted to 0.5 McFarland turbidity and subsequently diluted as per NCCLS guidelines in order to obtain 10^4 CFU/spot. CFU/ml of a few randomly selected cultures is performed. The cultures are replicated on the agar plates using replicator (Denley's multipoint). The plates are incubated at 35±2° C. and in 5% CO2 atmosphere (for respiratory and Haemophilus strains) for 18-24 hours at 35±2° C. Minimum inhibitory concentrations (MIC) are determined after 18-24 hours. Q. C. strains are also included in each run of the study. The cation content of Mueller Hinton agar is checked by performing disk […] of 10 μg gentamicin disk against Pseudomonas aeroginosa ATCC 27853. The zone of inhibition should fall between 16-21 mm. The concentration of drug at which there is complete disappearance of growth spot or formation of less than 10 colonies per spot is considered as MIC.

[2] = system: S. pneum AB 34 (mef); test: as above; settings: Streptococcus pneumoniae, read-out: Minimum Inhibitory Concentrations, S. pneum AB 34 (mef)
Procedure: as §1

[3] = system: S. pneum 1294 (mef); test: microbe, parasite or virus in culture; settings: Streptococcus pneumoniae, read-out: Minimum Inhibitory Concentrations, S. pneum 1294 (mef)
Procedure: as §1

Measured: MIC

CCC[C@@H]1C[C@@H](C(=O)N[C@@H]([C@H]2O[C@H](SC)[C@H](O)[C@@H](O)[C@H]2O)[C@H](C)Cl)N(C)C1 [Cl, Clindamycin, reference compound]
0.03 µg/mL: all assays above
